Reference: the supplement of paper PMC8728848
Some of the results follow.

Legend:
Assay in all cases: glycan array binding signal (z-score within array); higher = stronger binding
Conditions in all cases: glycan notation: IUPAC condensed, linker removed
[1] = target: Fuc(a1-3)[Gal3S(b1-4)]GlcNAc6S
How it was run: (§1)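 Columns mapping to the same glycan were averaged after glycan names were converted to IUPAC-condensed notation. The data come from 3228 arrays in the Consortium for Functional Glycomics database, limited to those with an available protein sequence. Binding is reported as a within-array Z-score averaged across arrays of one protein sequence and across linkers.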

[2] = target: Fuc(a1-3)[GalNAc(b1-4)]GlcNAc
How it was run: as §1

[3] = target: Fuc(a1-3)[GalNAc(b1-4)]GlcNAc6S
How it was run: as §1

[4] = target: Fuc(a1-4)GlcNAc
How it was run: as §1

[5] = target: Fuc(b1-3)GlcNAc
How it was run: as §1

[6] = target: Gal(a1-2)Gal
How it was run: as §1

[7] = target: Gal(a1-3)Gal
How it was run: as §1

[8] = target: Gal(a1-3)Gal(b1-3)GlcNAc
How it was run: as §1

[9] = target: Gal(a1-3)Gal(b1-3)GlcNAc(b1-2)Man
How it was run: as §1

[10] = target: Gal(a1-3)Gal(b1-3)GlcNAc(b1-2)Man(a1-3)[Gal(a1-3)Gal(b1-3)GlcNAc(b1-2)Man(a1-6)]Man(b1-4)GlcNAc(b1-4)GlcNAc
How it was run: as §1

[11] = target: Gal(a1-3)Gal(b1-3)GlcNAc(b1-3)GalNAc
How it was run: as §1

[12] = target: Gal(a1-3)Gal(b1-3)GlcNAc(b1-6)GalNAc
How it was run: as §1

[13] = target: Gal(a1-3)Gal(b1-3)[Fuc(a1-4)]GlcNAc(b1-2)Man(a1-3)[Gal(a1-3)Gal(b1-3)[Fuc(a1-4)]GlcNAc(b1-2)Man(a1-6)]Man(b1-4)GlcNAc(b1-4)GlcNAc
How it was run: as §1

[14] = target: Gal(a1-3)Gal(b1-4)Glc
How it was run: as §1

[15] = target: Gal(a1-3)Gal(b1-4)GlcNAc
How it was run: as §1

[16] = target: Gal(a1-3)Gal(b1-4)GlcNAc(b1-2)Man
How it was run: as §1

[17] = target: Gal(a1-3)Gal(b1-4)GlcNAc(b1-2)Man(a1-3)[Gal(a1-3)Gal(b1-4)GlcNAc(b1-2)Man(a1-6)]Man(b1-4)GlcNAc(b1-4)GlcNAc
How it was run: as §1

[18] = target: Gal(a1-3)Gal(b1-4)GlcNAc(b1-3)GalNAc
How it was run: as §1

[19] = target: Gal(a1-3)Gal(b1-4)GlcNAc(b1-6)GalNAc
How it was run: as §1

[20] = target: Gal(a1-3)Gal(b1-4)[Fuc(a1-3)]GlcNAc
How it was run: as §1

[21] = target: Gal(a1-3)Gal(b1-4)[Fuc(a1-3)]GlcNAc(b1-2)Man(a1-3)[Gal(a1-3)Gal(b1-4)[Fuc(a1-3)]GlcNAc(b1-2)Man(a1-6)]Man(b1-4)GlcNAc(b1-4)GlcNAc
How it was run: as §1

[22] = target: Gal(a1-3)GalNAc
How it was run: as §1

[23] = target: Gal(a1-3)[Gal(a1-4)]Gal(b1-4)GlcNAc
How it was run: as §1

[24] = target: Gal(a1-4)Gal(b1-3)GlcNAc(b1-2)Man(a1-3)[Gal(a1-4)Gal(b1-3)GlcNAc(b1-2)Man(a1-6)]Man(b1-4)GlcNAc(b1-4)GlcNAc
How it was run: as §1

[25] = target: Gal(a1-4)Gal(b1-4)Glc
How it was run: as §1

[26] = target: Gal(a1-4)Gal(b1-4)GlcNAc
How it was run: as §1

[27] = target: Gal(a1-4)Gal(b1-4)GlcNAc(b1-2)Man(a1-3)[Gal(a1-4)Gal(b1-4)GlcNAc(b1-2)Man(a1-6)]Man(b1-4)GlcNAc(b1-4)GlcNAc
How it was run: as §1

[28] = target: Gal(a1-4)Gal(b1-4)GlcNAc(b1-3)Gal(b1-4)Glc
How it was run: as §1

[29] = target: Gal(a1-4)GlcNAc
How it was run: as §1

[30] = target: Gal(a1-6)Glc
How it was run: as §1

[31] = target: Gal(b1-2)Gal
How it was run: as §1

[32] = target: Gal(b1-3)Gal
How it was run: as §1

[33] = target: Gal(b1-3)Gal(b1-4)GlcNAc
How it was run: as §1

[34] = target: Gal(b1-3)GalNAc
How it was run: as §1

[35] = target: Gal(b1-3)GalNAc(a1-3)[Fuc(a1-2)]Gal(b1-4)Glc
How it was run: as §1

[36] = target: Gal(b1-3)GalNAc(a1-3)[Fuc(a1-2)]Gal(b1-4)GlcNAc
How it was run: as §1

[37] = target: Gal(b1-3)GalNAc(b1-3)Gal
How it was run: as §1

[38] = target: Gal(b1-3)GalNAc(b1-3)Gal(a1-4)Gal(b1-4)Glc
How it was run: as §1

[39] = target: Gal(b1-3)GalNAc(b1-4)Gal(b1-4)Glc
How it was run: as §1

[40] = target: Gal(b1-3)GalNAc(b1-4)[Neu5Ac(a2-3)]Gal(b1-4)Glc
How it was run: as §1

[41] = target: Gal(b1-3)GlcNAc
How it was run: as §1

[42] = target: Gal(b1-3)GlcNAc(a1-3)Gal(b1-4)GlcNAc
How it was run: as §1

[43] = target: Gal(b1-3)GlcNAc(a1-6)Gal(b1-4)GlcNAc
How it was run: as §1

[44] = target: Gal(b1-3)GlcNAc(b1-2)Man
How it was run: as §1

[45] = target: Gal(b1-3)GlcNAc(b1-2)Man(a1-3)[Gal(b1-3)GlcNAc(b1-2)Man(a1-6)]Man(b1-4)GlcNAc(b1-4)GlcNAc
How it was run: as §1

B1: EULS2 M3 (Oryza sativa) (protein)
chain: MVYCRANPNYAMTARNGAVVLAPANPKDEYQHWIKDMRWSTSIKDEEGYPAFALVNKATGQAIKHSLGQSHPVRLVPYNPEVMDESVLWTESRDVGNGFRCIRMVNNIYLNFDAFHGDKYHGGVRDGTDIVLWKLCEGDSLRWKIQPYYILEQKLISEEDLNSAVDHHHHHH
- glycan array binding signal (z-score) [1]: -0.196
- glycan array binding signal (z-score) [2]: 0.017
- glycan array binding signal (z-score) [3]: -0.95
- glycan array binding signal (z-score) [4]: -0.052
- glycan array binding signal (z-score) [5]: -0.316
- glycan array binding signal (z-score) [6]: -0.03
- glycan array binding signal (z-score) [7]: 0.277
- glycan array binding signal (z-score) [8]: 8.25
- glycan array binding signal (z-score) [9]: -0.512
- glycan array binding signal (z-score) [10]: -0.1
- glycan array binding signal (z-score) [11]: -0.388
- glycan array binding signal (z-score) [12]: -0.479
- glycan array binding signal (z-score) [13]: 0.332
- glycan array binding signal (z-score) [14]: 0.227
- glycan array binding signal (z-score) [15]: 0.181
- glycan array binding signal (z-score) [16]: -0.417
- glycan array binding signal (z-score) [17]: 0.222
- glycan array binding signal (z-score) [18]: -0.198
- glycan array binding signal (z-score) [19]: -0.929
- glycan array binding signal (z-score) [20]: 0.123
- glycan array binding signal (z-score) [21]: -0.329
- glycan array binding signal (z-score) [22]: -0.069
- glycan array binding signal (z-score) [23]: 0.564
- glycan array binding signal (z-score) [24]: 0.072
- glycan array binding signal (z-score) [25]: -0.501
- glycan array binding signal (z-score) [26]: -0.442
- glycan array binding signal (z-score) [27]: 0.307
- glycan array binding signal (z-score) [28]: -0.361
- glycan array binding signal (z-score) [29]: -0.318
- glycan array binding signal (z-score) [30]: -0.431
- glycan array binding signal (z-score) [31]: -0.24
- glycan array binding signal (z-score) [32]: -0.117
- glycan array binding signal (z-score) [33]: 0.894
- glycan array binding signal (z-score) [34]: 0.239
- glycan array binding signal (z-score) [35]: -0.255
- glycan array binding signal (z-score) [36]: -0.821
- glycan array binding signal (z-score) [37]: -0.775
- glycan array binding signal (z-score) [38]: -0.242
- glycan array binding signal (z-score) [39]: -0.382
- glycan array binding signal (z-score) [40]: -0.461
- glycan array binding signal (z-score) [41]: 0.047
- glycan array binding signal (z-score) [42]: 2.02
- glycan array binding signal (z-score) [43]: -0.654
- glycan array binding signal (z-score) [44]: -0.032
- glycan array binding signal (z-score) [45]: -0.258
